The text below walks through data of patent US11485769B2, “Peptides and combination of peptides for use in immunotherapy and methods for generating scaffolds for the use against pancreatic cancer and other cancers” (Immatics Biotechnologies GmbH, priority 2015, dated 2022).

Data set [1] relates to source genes (mRNA) in tumors compared to a panel of normal tissues. The experiment in a line: Expression profiling of genes encoding the peptides (Affymetrix microarray, expression scores). The following applies: over-expression of the source gene in tumors compared to a panel of normal tissues; Affymetrix microarrays. Further details: species or system human; key: very highly over-expressed in tumors compared to a panel of normal tissues (+++); highly over-expressed in tumors compared to a panel of normal tissues (++); over-expressed in tumors compared to a panel of normal tissues (+).

Data set [2] concerns tumors compared to a panel of normal tissues. The experiment in a line: Identification and label-free LC-MS quantitation of HLA-presented tumor associated peptides (presentation profiles/scores). Further details: species or system human; key to Peptide Presentation (presentation score): very highly over-presented on tumors compared to a panel of normal tissues (+++); highly over-presented on tumors compared to a panel of normal tissues (++); over-presented on tumors compared to a panel of normal tissues (+). Particulars: for Peptide Presentation (presentation score): over-presentation on tumors compared to a panel of normal tissues, label-free LC-MS quantitation of HLA peptides.

For part of these data: Expression grades refer to the transcript from which the peptide derives; gene names, where given, were looked up from the sequence.

In the case of “26: peptide found in MAN2A1 (gene looked up) (SLYTALTEA; listed as Homo sapiens) [compound 26]”, the “Gene Expression (expression score)” value in data set [1] is listed as “+”.
Take “31: peptide found in ADAM9 (gene looked up) (YLDSMYIML; listed as Homo sapiens) [compound 31]”: the “Peptide Presentation (presentation score)” value (from here on “Peptide Presentation”) in data set [2] is given as “++”. Also, the “Gene Expression (expression score)” value in data set [1] is given as “+”.
For “67: peptide found in MCM4 (gene looked up) (VIWGTDVNV; listed as Homo sapiens) [compound 67]”, the “Peptide Presentation” value in data set [2] was “++”. Moreover, in data set [1], the “Gene Expression (expression score)” value was “+++”.
On to “145: peptide found in NONO (gene looked up) (TTFPRPVTV; listed as Homo sapiens) [compound 145]”, for which the “Peptide Presentation” value in data set [2] was “+++”. In addition, in data set [1], the “Gene Expression (expression score)” value is “+”.
With “113: peptide found in GFPT2 (gene looked up) (LMMSEDRISL; listed as Homo sapiens) [compound 113]”, the “peptide additionally detected on brain cancers (positive/measured samples)” value in data set [2] (brain cancers) is 5/34. The “peptide additionally detected on breast cancers (positive/measured samples)” value in data set [2] (breast cancers) is 3/18. Moreover, the “peptide additionally found on colon or rectum cancers (positive/measured samples)” value in data set [2] (colon or rectum cancers) is 2/29. The “peptide additionally detected on esophageal cancers (positive/measured samples)” value in data set [2] (esophageal cancers) is listed as 2/18. Further, in data set [2] (gallbladder/bile duct cancers), the “peptide additionally detected on gallbladder or bile duct cancers (positive/measured samples)” value is given as 3/17. Moreover, in data set [2] (head and neck cancers), the “peptide additionally found on head and neck cancers (positive/measured samples)” value was 1/8. In addition, the “peptide additionally detected on liver cancers (positive/measured samples)” value in data set [2] (liver cancers) was 1/21. Besides, the “peptide additionally detected on lung cancers (positive/measured samples)” value in data set [2] (lung cancers) was 18/107. In addition, in data set [2] (lymph node cancers), the “peptide additionally found on lymph node cancers (positive/measured samples)” value was 3/20. In addition, the “peptide additionally found on pancreas cancers (positive/measured samples)” value in data set [2] (pancreas cancers) is reported as 1/19. The “peptide additionally detected on prostate cancers (positive/measured samples)” value in data set [2] (prostate cancers) is 1/87. Further, the “peptide additionally found on skin cancers (positive/measured samples)” value in data set [2] (skin cancers) is recorded as 2/18. Besides, the “peptide additionally detected on urinary bladder cancers (positive/measured samples)” value in data set [2] (urinary bladder cancers) is 2/15. In addition, the “peptide additionally found on uterus cancers (positive/measured samples)” value in data set [2] (uterus cancers) is given as 1/16. The “Gene Expression (expression score)” value in data set [1] is “++”.
“139: peptide found in STAT2 (gene looked up) (SIDRNPPQL; listed as Homo sapiens) [compound 139]”: the “Gene Expression (expression score)” value in data set [1] is on record as “+”.
Regarding “99: peptide found in PRKDC (gene looked up) (ALESFLKQV; listed as Homo sapiens) [compound 99]”, in data set [2], the “Peptide Presentation” value is “+”. In data set [1], the “Gene Expression (expression score)” value is listed as “+”.
As for “132: peptide found in HNRNPU (gene looked up) (FLWAGGRASYGV; listed as Homo sapiens) [compound 132]”, the “Peptide Presentation” value in data set [2] is “+++”. Further, in data set [1], the “Gene Expression (expression score)” value was “+”.
In the same order, the values of “140: peptide found in CCNA2 (gene looked up) (SLLNPPETLNL; listed as Homo sapiens) [compound 140]” are “+++” and “++”.
Consider “173: peptide found in NCAPD2 (gene looked up) (SLAGDVALQQL; listed as Homo sapiens) [compound 173]”, for which, in data set [2], the “Peptide Presentation” value is given as “+++”. For the same substance, the “Gene Expression (expression score)” value in data set [1] is listed as “+”.
With “95: peptide found in MCM4 (gene looked up) (ALADDDFLTV; listed as Homo sapiens) [compound 95]”, the “Peptide Presentation” value in data set [2] is reported as “++”. For the same substance, the “Gene Expression (expression score)” value in data set [1] is “+++”.
In the same order, the values of “80: peptide found in FN1 (gene looked up) (LLPGTEYVVSV; listed as Homo sapiens) [compound 80]” are “+” and “+++”.
For “75: peptide found in COL1A1 (gene looked up) (FSFVDLRLL; listed as Homo sapiens) [compound 75]” the same measures were “+++” and “+++”.
“153: peptide found in COPG1 (gene looked up) (ALPKEDPTAV; listed as Homo sapiens) [compound 153]”: the “Peptide Presentation” value in data set [2] was “+”. Further, the “Gene Expression (expression score)” value in data set [1] is “+”.
With “136: peptide found in ASNS (gene looked up) (KLFPGFEIETV; listed as Homo sapiens) [compound 136]”, in data set [2], the “Peptide Presentation” value is listed as “+++”. For the same substance, the “Gene Expression (expression score)” value in data set [1] is reported as “+++”.
In the case of “61: peptide found in TRPV2 (gene looked up) (SMYDGLLQA; listed as Homo sapiens) [compound 61]”, in data set [2], the “Peptide Presentation” value is on record as “++”. Further, the “Gene Expression (expression score)” value in data set [1] was “++”.
For “34: peptide found in GFPT2 (gene looked up) (FLEDDDIAAV; listed as Homo sapiens) [compound 34]”, the “Peptide Presentation” value in data set [2] is recorded as “+++”. Moreover, the “Gene Expression (expression score)” value in data set [1] is listed as “++”.
With “165: peptide found in NCAPG (gene looked up) (YLLSYIQSI; listed as Homo sapiens) [compound 165]”, the “Peptide Presentation” value in data set [2] is on record as “++”. Also, the “Gene Expression (expression score)” value in data set [1] is recorded as “+++”.
Regarding “92: peptide found in PLEC (gene looked up) (YLTNEGIAHL; listed as Homo sapiens) [compound 92]”, the “Peptide Presentation” value in data set [2] was “+”. The “Gene Expression (expression score)” value in data set [1] is “+++”.
As to “11: peptide found in IPO7 (gene looked up) (ALYYNPHLL; listed as Homo sapiens) [compound 11]”, the “Peptide Presentation” value in data set [2] is listed as “+++”. Also, in data set [1], the “Gene Expression (expression score)” value was “+”.
In the same order, the values of “91: peptide found in PLEC (gene looked up) (LLFNDVQTL; listed as Homo sapiens) [compound 91]” are “+” and “+++”.
In the same order, the values of “79: peptide found in FN1 (gene looked up) (VVYEGQLISI; listed as Homo sapiens) [compound 79]” are “+” and “+++”.
For “126: peptide found in PRKDC (gene looked up) (ALLSLDPAAV; listed as Homo sapiens) [compound 126]” the same measures were “+++” and “+”.
For the substance “137: peptide found in SLC1A5 (gene looked up) (KLGPEGELL; listed as Homo sapiens) [compound 137]”, the “Peptide Presentation” value in data set [2] is reported as “+++”. The “Gene Expression (expression score)” value in data set [1] is on record as “+”.
As for “53 (LLWDPSTGKQV; listed as Homo sapiens) [compound 53]”, the “Peptide Presentation” value in data set [2] is listed as “+++”.
